In paper PMC7069097:
These are yes or no findings as the source states them, for the method shown. Binding seen in cells or lysates may run through a third protein. Some entries that bind do so weakly or less than the wild type. Sequences can lack the tags named with a protein.

Sequences of proteins named here, by UniProt entry; tags and fusion partners are left off.
UniProt Q14145: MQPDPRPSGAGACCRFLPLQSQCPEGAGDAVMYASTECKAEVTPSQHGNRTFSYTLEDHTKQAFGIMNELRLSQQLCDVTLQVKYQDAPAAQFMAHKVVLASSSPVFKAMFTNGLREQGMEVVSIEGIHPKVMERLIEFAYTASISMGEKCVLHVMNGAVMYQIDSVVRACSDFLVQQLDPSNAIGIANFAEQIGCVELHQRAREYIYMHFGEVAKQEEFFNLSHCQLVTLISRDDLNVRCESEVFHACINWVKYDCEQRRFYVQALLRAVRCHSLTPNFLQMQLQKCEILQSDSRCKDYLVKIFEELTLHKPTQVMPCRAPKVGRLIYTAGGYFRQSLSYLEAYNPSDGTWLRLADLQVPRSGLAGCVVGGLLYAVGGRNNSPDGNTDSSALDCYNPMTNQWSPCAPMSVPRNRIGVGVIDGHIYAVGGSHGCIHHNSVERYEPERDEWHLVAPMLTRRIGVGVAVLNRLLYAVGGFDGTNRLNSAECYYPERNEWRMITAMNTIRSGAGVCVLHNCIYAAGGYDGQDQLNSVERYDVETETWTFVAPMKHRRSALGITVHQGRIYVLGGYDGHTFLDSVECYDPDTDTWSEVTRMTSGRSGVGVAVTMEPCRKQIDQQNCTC

Biological target: T1, PAQR4-Flag (Progestin and AdipoQ Receptor 4 with a 3×Flag at the C-terminus) (human) (UniProt Q8N4S7)
T1 sequence: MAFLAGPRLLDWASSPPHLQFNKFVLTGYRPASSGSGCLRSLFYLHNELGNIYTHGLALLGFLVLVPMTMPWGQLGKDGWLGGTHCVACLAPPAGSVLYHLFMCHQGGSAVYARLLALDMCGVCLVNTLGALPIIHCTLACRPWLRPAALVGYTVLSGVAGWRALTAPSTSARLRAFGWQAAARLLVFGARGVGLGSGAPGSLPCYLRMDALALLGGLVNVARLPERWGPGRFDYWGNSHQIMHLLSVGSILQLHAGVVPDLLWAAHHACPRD
Assay: co-IP; HEK-293T cells transiently transfected with the indicated constructs; lysates immunoprecipitated with Flag/Myc/HA antibodies, western blot

| binding | Substance |
| --- | --- |
| binds | HA-Keap1 (Kelch-like ECH-associated protein 1, N-terminal 3×HA) (from UniProt Q14145 1-624) |
| binds | Myc-Nrf2 (nuclear factor erythroid 2-related factor 2, N-terminal 6×Myc) (from UniProt Q16236-1 1-605) |
